Experimental findings from paper PMC4976201 (Nature Communications, 2016) are described below.

This series in a line: general procedure: peptide synthesis; 2-chlorotrityl resin (0.5 mmol/g); DIC/HOBt (SPPS); HATU/HOAT/OxymaPure/DIEA (cyclization). The settings on record: TFA salt; for isolated mass / isolated yield: whole synthesis, HCl salt for 12; for isolated yield: over all steps, scale of the general procedure 100 mg resin.

On to “D-N-Me-Phe-D-allo-Ile-L-Ser-D-Gln-D-allo-Ile-L-Ile-SAL ester”, for which the isolated mass turned out to be 165.1 mg and the isolated yield is given as 36.3%.
The matching figures for “D-N-Me-Phe-L-Ile-L-Ser-D-Gln-D-Ile-L-Ile-SAL ester”: 167.4 mg and 36.3%.
On the same counts, the results for “D-Phe-L-Ile-L-Ser-D-Gln-D-allo-Ile-L-Ile-SAL ester” are 160.2 mg and 34.8%.
For Teixobactin, the step yield (coupling step) is given as 36.8%.
